Experimental data: patent US20030176327A1 (priority 2001, published 2003)
At least one structure is not confirmed: it was looked up by name or label, or the drawing left a doubt.

Columns and labels:
B anthracis [1] = details: monkey, in vivo, po; cited from earlier work
Bacillus anthracis = type: cell-based
Yersinia Pestis = type: cell-based
Francisella tularensis = type: cell-based
Clostridium botulinin = type: cell-based
Clostridium perfringens = type: cell-based
[2] = test system: Brucella abortis, B milletensis and B suis; type: cell-based
Burkholderia mallei = type: cell-based
B anthracis [3] = details: cited from earlier work

Which “Efficacy in monkeys infected with susceptible strains of B anthracis” value (B anthracis [1]) does the source give for C[C@H]1c2cccc(O)c2C(=O)C2=C(O)[C@]3(O)C(=O)C(C(N)=O)=C(O)[C@@H](N(C)C)[C@@H]3[C@@H](O)[C@@H]21 [doxycycline] here?
Its value is “efficacious”.

Which “Suitability against Bacillus anthracis” value (Bacillus anthracis) does the source give for CC[C@H]1OC(=O)[C@H](C)[C@@H](O[C@H]2C[C@@](C)(OC)[C@@H](O)[C@H](C)O2)[C@H](C)[C@@H](O[C@@H]2O[C@H](C)C[C@H](N(C)C)[C@H]2O)[C@](C)(O)C[C@@H](C)[C@@H]2N[C@@H](COCCOC)O[C@H]([C@H]2C)[C@]1(C)O [Dirithromycin] here?
The value was “Yes”.

And the “Suitability against Yersinia Pestis” value (Yersinia Pestis)?
Its value is “Yes”.

What about the “Suitability against Francisella tularensis” value (Francisella tularensis) of the same molecule?
Its value is “Yes”.

What about the “Suitability against Clostridium botulinin” value (Clostridium botulinin) of the same molecule?
The value was “No”.

And the “Suitability against Clostridium perfringens” value (Clostridium perfringens)?
Its value is “No”.

What about the “Suitability against Brucella abortis, B milletensis and B suis” value [2] of the same molecule?
Its value is “No”.

What about the “Suitability against Burkholderia mallei” value (Burkholderia mallei) of the same molecule?
Its value is “No”.

Which “Suitability against Bacillus anthracis” value (Bacillus anthracis) does the source give for CCC(=O)O[C@H]1[C@H](O[C@@H]2[C@@H](C)[C@H](O[C@H]3C[C@@](C)(OC)[C@@H](O)[C@H](C)O3)[C@@H](C)C(=O)O[C@H](CC)[C@@](C)(O)[C@H](O)[C@@H](C)C(=O)[C@H](C)C[C@@]2(C)O)O[C@H](C)C[C@@H]1N(C)C [Erythromycin Estolate] here?
Its value is “Yes”.

And the “Suitability against Yersinia Pestis” value (Yersinia Pestis)?
The value was “Yes”.

And the “Suitability against Francisella tularensis” value (Francisella tularensis)?
The value was “Yes”.

For CCC[C@@H]1C[C@@H](C(=O)N[C@@H]([C@H]2O[C@H](SC)[C@H](O)[C@@H](O)[C@H]2O)[C@H](C)Cl)N(C)C1 [clindamycin], which “Effective against B anthracis in vitro” value (B anthracis [3]) is on record?
Its value is “effective”.
